From PubChem BioAssay AID2685 (National Center for Advancing Translational Sciences (NCATS), 2010)
The list shows a part of the results. Shown are side measurements of this screen, not its main read-out; they come without a call. The list favours compounds with an active or inconclusive main result. Potencies come from curve fits of mixed quality, noted in brackets.

Assay: qHTS Assay for Lipid Storage Modulators in Drosophila S3 Cells;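 on cell number change: cells counted by Cell Tracker Red CMTPX staining in the red channel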
Conditions: BODIPY lipid droplet fluorescence, 18-24 h; for cell number change: measured here: cell count max response, cells fed with added oleic acid
In short: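 Drosophila S3 cells got compounds at several concentrations plus oleic acid (400 uM solution). Laser-scanning cytometry with 488 nm excitation read lipid droplets at 500-530 nm and cells at 575-640 nm. Percent activity was relative to 20 uM Triacsin C.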

[1] = measured here: cell number channel AC50, cells fed with added oleic acid
[2] = measured here: lipid fluorescence (Fed channel) AC50, cells fed with added oleic acid

SMILES	cell number change	AC50 [1]	AC50 [2]
CCS(=O)(=O)n1nc(C(=O)N2CCOCC2)nc1N	-199%	18.4 µM [falling, partial curve]	18.4 µM [falling, partial curve]
CCCc1cc(=O)[nH]c(SCC(=O)Nc2nc3ccc(OCC)cc3s2)n1	-7.88%	–	0.00517 µM [falling, full curve, poor fit]
O=C(Nc1ccnn1C1CCN(Cc2ccccc2OC(F)F)CC1)c1cccnc1	23.3%	–	9.2 µM [rising, partial curve, poor fit]
CSc1nc(NCCCN(C)C)c2c3c(sc2n1)CN(C)CC3	33.8%	11.6 µM [rising, partial curve]	6.51 µM [rising, single point]
COc1cccc(C(=O)Nc2ccc(-c3nnc(-c4ccco4)o3)cc2)c1	13.5%	–	23.1 µM [falling, single point]
CN(Cc1cccs1)C(=O)COc1ccc(-c2nnco2)cc1	29%	0.164 µM [rising, full curve, poor fit]	–
CC(C)c1ccc(NC(=S)NCCc2c[nH]c3ccccc23)cc1	-16.3%	–	–
CCN(CC)S(=O)(=O)c1cccc(C(=O)N/N=C/c2c(C)nn(-c3ccccc3)c2Cl)c1	8.88%	–	0.231 µM [falling, partial curve, poor fit]
CC(=O)C(Sc1nc(NC(C)(C)C)nc(N(C)C)n1)C(C)=O	-33%	16.4 µM [falling, partial curve]	23.1 µM [falling, single point]
O=C(CSc1nnc(CSc2nc3ccccc3s2)o1)NC1CCCCC1	-11.9%	–	0.461 µM [rising, full curve, poor fit]
COc1cc(C(=O)NCC(c2ccccc2)N(C)C)ccc1OCc1c(C)noc1C (stereo unspecified)	9.39%	–	–
COc1cc(OC)cc(C(=O)N2CCN(c3ncccn3)CC2)c1	56%	29.1 µM [rising, single point]	29.1 µM [rising, single point]
O=C(O)c1ccc(/C=N/NC(=O)C2CC2(c2ccccc2)c2ccccc2)cc1 (stereo unspecified)	75%	–	–
CCOC(=O)N1CCN(C(=O)CCC2CCCC2)CC1	-2.05%	–	1.16 µM [rising, single point]
COc1ccccc1-n1nnnc1SCC(=O)NCC1CCCO1 (stereo unspecified)	18.1%	–	–
COc1ccc(C2(c3ccc(OC)cc3)NC(=O)N(CC(=O)Nc3ccc(C(N)=O)cc3)C2=O)cc1	5.65%	–	–
CC(C)c1ccccc1OCC(=O)NCC(c1cccs1)N1CCOCC1 (stereo unspecified)	-33.5%	0.461 µM [falling, full curve, poor fit]	0.82 µM [falling, full curve, poor fit]
CN(Cc1cccc(F)c1)C(=O)CNS(=O)(=O)c1ccc2ccccc2c1	20.2%	–	0.206 µM [rising, single point]
Cc1nn(CC(=O)Nc2sc3c(c2C#N)CCC(C(C)(C)C)C3)c(C)c1[N+](=O)[O-] (stereo unspecified)	-5.95%	–	3.66 µM [falling, full curve]
C=CCN(c1ccccc1)S(=O)(=O)c1cccc(C(=O)NCC(c2ccc(F)cc2)N2CCOCC2)c1 (stereo unspecified)	–	4.61 µM [rising, single point]	0.651 µM [rising, partial curve]
COc1ccccc1N(CC(=O)NC1CCCCC1)C(=O)Cn1nnc(-c2ccc(C)o2)n1	21.4%	–	–

Entries of single compounds, quoted from the list.
COc1cccc(C(=O)Nc2ccc(-c3nnc(-c4ccco4)o3)cc2)c1 in the list: cell number change: 13.5%; AC50 [2]: 23.1 µM [falling, single point]
Cc1nn(CC(=O)Nc2sc3c(c2C#N)CCC(C(C)(C)C)C3)c(C)c1[N+](=O)[O-] (stereo unspecified) in the list: cell number change: -5.95%; AC50 [2]: 3.66 µM [falling, full curve]

Additional records follow:

SMILES	cell number change	AC50 [1]	AC50 [2]
CCn1cc([N+](=O)[O-])c(C(=O)N2N=C(c3ccc4ccccc4c3)CC2c2cc(Br)ccc2O)n1 (stereo unspecified)	-51.2%	20.6 µM [falling, single point]	20.6 µM [falling, single point]
CN(C)c1nc(Cl)cc(N2CCOCC2)n1	–	–	1.3 µM [falling, partial curve, poor fit]
CCOCCCNC(=O)c1cc2c(=O)[nH]c3ccccc3c2s1	8.5%	–	–
CSc1ccc(/C=N/N(C)S(=O)(=O)c2ccc(C)cc2)cc1	-15.7%	–	29.1 µM [falling, single point]
O=C(c1ccccc1)N1N=C(c2ccccc2)CC1(O)C(F)(F)F (stereo unspecified)	-32.5%	32.6 µM [falling, single point]	–
Cc1cc2n(n1)C(c1ccsc1)Nc1ccccc1-2 (stereo unspecified)	20.9%	–	13 µM [rising, partial curve]
COc1ccc(OC)c(S(=O)(=O)ON2C(=O)c3ccccc3C2=O)c1	5.26%	–	0.0517 µM [falling, full curve, poor fit]
CC1CC(C)(C)NC(=S)N1CCC(=O)Nc1ccc2c(c1)OCCO2 (stereo unspecified)	–	–	7.31 µM [falling, single point]
O=C(c1ccccc1)N1N=C(c2ccccc2)CC1c1cccs1 (stereo unspecified)	–	0.00461 µM [rising, full curve, poor fit]	–
O=C(OCc1ccccc1F)c1cnc(Cl)c(Cl)c1	20.9%	–	–
Cc1ccc2nc(-c3ccncc3)cc(C(=O)N3CCOCC3)c2c1	-8.09%	–	0.164 µM [falling, full curve, poor fit]
CC(C)(C)c1ccc(-n2ncc3c2CCCC3NC(=O)CN2CCCCC2=O)cc1 (stereo unspecified)	-19.1%	–	29.1 µM [falling, single point]
C/C(CC(=O)NC12CC3CC(CC(C3)C1)C2)=N\NC(=O)c1ccc(C)cc1	5.25%	–	0.092 µM [rising, full curve, poor fit]
CCC(C)NCCOc1cc(C)cc(C)c1C (stereo unspecified)	–	–	0.00461 µM [falling, full curve, poor fit]
CCCCN(C1CCS(=O)(=O)C1)S(=O)(=O)c1ccc(OC)c(OC)c1 (stereo unspecified)	-33.3%	20.6 µM [falling, single point]	20.6 µM [falling, single point]
Cc1ccc(Cn2cccc(NS(C)(=O)=O)c2=O)cc1	14.4%	–	–
Cc1ccc(NC(=O)Nc2ccc3oc(C)nc3c2)cc1	–	0.731 µM [rising, partial curve, poor fit]	–
O=C(COC(=O)c1ccccn1)NCCCc1ccccc1	-18.2%	–	3.26 µM [falling, partial curve, poor fit]
COCCCNc1nc2c(-c3ccc(Cl)cc3)nnn2c2ccccc12	14.8%	–	0.58 µM [rising, full curve]
CCOC(=O)c1ccc(-c2c(-c3ccc4c(c3)OCO4)noc2-c2ccsc2)cc1F	-5.39%	–	–
COc1ccc(-c2nnn(Cc3ccccc3)n2)cc1OC	3.28%	–	–

SMILES	cell number change	AC50 [1]	AC50 [2]
CNC(=O)c1ccc(-c2ccc(OC)cc2)s1	-10.1%	–	–
O=C(/C=C/c1ccc(Cl)c([N+](=O)[O-])c1)Nc1ccc(NC(=O)c2ccco2)cc1	-15.3%	–	–
CN(C)/C=N/C(=S)Nc1ccc(Cl)cc1	-29.2%	–	29.1 µM [falling, single point]
CN(Cc1ccccc1F)C(=O)CNC(=O)Cc1cccc2ccccc12	14.1%	–	6.51 µM [rising, partial curve, poor fit]
CCCCOc1nc2ccccc2nc1NS(=O)(=O)c1ccc(F)cc1	2.13%	–	–
Cc1ccc(NC(=O)COC(=O)COc2ccc3ccc(=O)oc3c2)cc1[N+](=O)[O-]	-3.58%	–	16.4 µM [rising, single point]
COc1ccc(NC(C)C(=O)N/N=C/c2ccc([N+](=O)[O-])s2)cc1 (stereo unspecified)	-11.1%	–	–
CC(=O)Nc1ccc(S(=O)(=O)Nc2cccc(N(C)S(C)(=O)=O)c2)cc1	-31.2%	7.31 µM [falling, partial curve]	11.6 µM [falling, partial curve]
COc1ccc(OCC(=O)NCCS(=O)(=O)N2CCN(c3ccc(F)cc3)CC2)cc1	24.5%	0.651 µM [rising, full curve, poor fit]	29.1 µM [rising, single point]
O=C(COc1ccc(F)c(Cl)c1)c1ccc[nH]1	-29.3%	–	20.6 µM [rising, partial curve]
CCCn1nc(NC(=O)COC)c2cc3cc(C)ccc3nc21	–	–	6.51 µM [rising, single point]
COc1ccc(S(=O)(=O)N2CCCC(C(=O)NCCC(C)C)C2)cc1 (stereo unspecified)	–	–	0.651 µM [rising, single point]
Cn1cc(C(=O)N2CCN(c3cccc(Cl)c3)CC2)c(=O)c2cc(S(=O)(=O)N3CCOCC3)ccc21	-17.4%	–	3.26 µM [falling, single point]
Cc1cc(C)c(C#N)c(SCC(=O)N(C)C2CCCCC2)n1	9.55%	5.8 µM [rising, partial curve, poor fit]	–
O=C(O)c1ccccc1NC(=O)C(Cc1ccccc1)N1C(=O)c2ccccc2C1=O (stereo unspecified)	-6.31%	–	–
c1ccc(C2Nc3ccccc3C3OCCCC23)cc1 (stereo unspecified)	15.3%	–	29.1 µM [rising, single point]
Cn1c2ccccc2c2cc(C(=O)O)ccc21	2.05%	–	29.1 µM [rising, single point]
CCOC(=O)c1c(C)oc2c1c(C(c1ccccc1)N1CCOCC1)c(O)c1ccccc12 (stereo unspecified)	54.3%	3.66 µM [rising, partial curve]	–
CCCCn1c(N)c(N(CCC(C)C)C(=O)c2cccc(S(=O)(=O)N3CCN(C)CC3)c2)c(=O)[nH]c1=O	-35.6%	2.91 µM [falling, full curve]	3.66 µM [falling, full curve]
COc1ccc(S(=O)(=O)N2CCC(C(=O)NCc3ccncc3)CC2)cc1C	-7.89%	–	–
Cc1cccc(-c2nnc(SCC#N)n2Cc2ccccc2)c1	–	–	6.51 µM [rising, single point]
